Measured values taken from patent publication US20200109196A1.
No constants are given. Whether binding was seen depends on the method and setting. Some results given as binding are weak or reduced against the parent protein; the word gives no strength.

Sequences of proteins named here, by UniProt entry; tags and fusion partners are left off. A change or cut given only in a name is not applied to a line headed by its entry. Residues count along the entry.
UniProt P13688: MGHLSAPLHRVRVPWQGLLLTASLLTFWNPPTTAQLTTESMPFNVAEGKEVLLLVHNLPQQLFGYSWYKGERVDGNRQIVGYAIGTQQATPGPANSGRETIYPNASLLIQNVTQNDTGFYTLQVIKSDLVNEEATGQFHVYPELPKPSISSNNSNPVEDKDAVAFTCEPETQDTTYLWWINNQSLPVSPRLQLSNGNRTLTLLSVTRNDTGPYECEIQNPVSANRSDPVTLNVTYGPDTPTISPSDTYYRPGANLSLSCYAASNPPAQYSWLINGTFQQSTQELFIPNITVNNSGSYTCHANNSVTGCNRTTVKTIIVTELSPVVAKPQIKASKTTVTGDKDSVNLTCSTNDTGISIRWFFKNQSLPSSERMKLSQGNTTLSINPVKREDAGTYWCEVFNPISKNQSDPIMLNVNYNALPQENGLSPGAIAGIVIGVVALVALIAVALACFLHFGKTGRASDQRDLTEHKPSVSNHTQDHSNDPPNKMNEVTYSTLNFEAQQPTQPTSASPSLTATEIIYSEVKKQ
recombinant CEACAM1-Fc (IgG4) protein (Mogam, in-house production): residues 35-428 of P13688

How the values were obtained:
[1] = biological target: human CEACAM1 expressed on the cell surface (CEACAM1-Jurkat T cells; HEK293 cells transfected with human CEACAM1 plasmid vector) (human) (UniProt P13688); experiment: flow cytometry on CEACAM1-Jurkat T cells, PE goat anti-human F(ab)2, MFI [b]
[2] = biological target: human CEACAM1 expressed on the cell surface (CEACAM1-Jurkat T cells; HEK293 cells transfected with human CEACAM1 plasmid vector) (human) (UniProt P13688); experiment: flow cytometry on transfected HEK293 cells (GFP+ gate), PE goat anti-huIgG4 [b]
[3] = biological target: human CEACAM1 expressed on the cell surface (CEACAM1-Jurkat T cells; HEK293 cells transfected with human CEACAM1 plasmid vector) (human) (UniProt P13688); experiment: flow cytometry on transfected HEK293 cells (GFP+ gate), PE goat anti-huIgG4 [b), lower row]
N+A1+B+A2 = experiment: ELISA on coated CEACAM1 domain protein, one antibody dilution, HRP anti-human IgG, OD450
[4] = biological target: recombinant CEACAM1-Fc (IgG4) protein (Mogam, in-house production) (human) (UniProt P13688); experiment: ELISA on coated antigen (0.25 µg/ml), antibody 3 µg/ml, HRP anti-human IgG Fab, OD450
[5] = biological target: recombinant CEACAM1-Fc (IgG4) protein (Mogam, in-house production) (human) (UniProt P13688); experiment: ELISA, coated antigen, anti-human IgG Fab-HRP

Row | Binder | binding [1] | binding [2] | binding [3] | binding (N+A1+B+A2) | binding [4] | binding [5]
1 | 4R9 (antibody, human IgG4 S228P, lambda, V domains shown) VH: EVQLLESGGGLVQPGGSLRLSCAASGFTFSNYAMSWVRQAPGKGLEWVSVISHGGGSIYYADSVKGRLTISRDNSKNTLYLQMNSLRAEDTAVYYCARDPTKGYAPTFDYWGQGTLVTVSS VL: QSVLTQPPSASGTPGQRVTISCSGSSSNIGNNYVSWYQQLPGTAPKLLIYADSRRPSGVPDRFSGSKSGTSASLAISGLRSEDEADYYCGAWDLSLNGYVFGGGTKLTVLG | binds | binds | binds | binds |  | 
2 | 4R9_H2-2 (antibody, human IgG4 S228P, lambda, V domains shown) VH: EVQLLESGGGLVQPGGSLRLSCAASGFTFSNYAMSWVRQAPGKGLEWVSVISHGGGSIYYADSVKGRLTISRDNSKNTLYLQMNSLRAEDTAVYYCARDPTKGYAPLFDYWGQGTLVTVSS VL: QSVLTQPPSASGTPGQRVTISCSGSSSNIGNNYVSWYQQLPGTAPKLLIYADSRRPSGVPDRFSGSKSGTSASLAISGLRSEDEADYYCGAWDLSLNGYVFGGGTKLTVLG | binds | binds | binds |  |  | 
3 | 4R9_H4-n20 (antibody, human IgG4 S228P, lambda, V domains shown) VH: EVQLLESGGGLVQPGGSLRLSCAASGFNFSNYAMSWVRQAPGKGLEWVSVISHGGGSIYYADSVKGRLTISRDNSKNTLYLQMNSLRAEDTAVYYCARDPTKGYAPTFDYWGQGTLVTVSS VL: QSVLTQPPSASGTPGQRVTISCSGSSSNIGNNYVSWYQQLPGTAPKLLIYADSRRPSGVPDRFSGSKSGTSASLAISGLRSEDEADYYCGAWDLSLNGYVFGGGTKLTVLG | binds | binds | binds |  |  | 
4 | 4R26 (antibody, human IgG4 S228P, lambda, V domains shown) VH: EVQLLESGGGLVQPGGSLRLSCAASGFTFSNYAMSWVRQAPGKGLEWVSVISHGGGSIYYADSVKGRLTISRDNSKNTLYLQMNSLRAEDTAVYYCARDPTKGYAPTFDYWGQGTLVTVSS VL: QSVLTQPPSASGTPGQRVTISCSGSSSNIGNNYVSWYQQLPGTAPKLLIYADSKRLSGVPDRFSGSKSGTSASLAISGLRSEDEADYYCGAWDGRLNGYVFGGGTKLTVLG | binds | binds | binds | binds |  | 
5 | 4R20 (antibody, human IgG4 S228P, lambda, V domains shown) VH: EVQLLESGGGLVQPGGSLRLSCAASGFTFSNYAMSWVRQAPGKGLEWVSVISHGGGSIYYADSVKGRLTISRDNSKNTLYLQMNSLRAEDTAVYYCARDPTKGYAPTFDYWGQGTLVTVSS VL: QSVLTQPPSASGTPGQRVTISCSGSSSNIGNNYVSWYQQLPGTAPKLLIYADSRRPSGVPDRFSGSKSGTSASLAISGLRSEDEADYYCGAWDASYNGYVFGGGTKLTVLG |  |  |  | binds |  | 
6 | 1-23 (antibody, human IgG4 S228P, lambda, V domains shown) VH: EVQLLESGGGLVQPGGSLRLSCAASGFTFSNYAMSWVRQAPGKGLEWVSVISHGGGSIYYADSVKGRLTISRDNSKNTLYLQMNSLRAEDTAVYYCARDPTKGYAPTFDYWGQGTLVTVSS VL: QSVLTQPPSASGTPGQRVTISCSGSSSNIGNNYVSWYQQLPGTAPKLLIYADSKRPSGVPDRFSGSKSGTSASLAISGLRSEDEADYYCGAWDVSHNGYVFGGGTKLTVLG |  |  |  | binds |  | 
7 | 3-7 (antibody, human IgG4 S228P, lambda, V domains shown) VH: EVQLLESGGGLVQPGGSLRLSCAASGFTFSNYAMSWVRQAPGKGLEWVSVISHGGGSIYYADSVKGRLTISRDNSKNTLYLQMNSLRAEDTAVYYCARDPTKGYAPTFDYWGQGTLVTVSS VL: QSVLTQPPSASGTPGQRVTISCSGSSSNIGNNYVSWYQQLPGTAPKLLIYADSKRPSGVPDRFSGSKSGTSASLAISGLRSEDEADYYCGAWDQSLNGYVFGGGTKLTVLG |  |  |  | binds |  | 
8 | 3-27 (antibody, human IgG4 S228P, lambda, V domains shown) VH: EVQLLESGGGLVQPGGSLRLSCAASGFTFSNYAMSWVRQAPGKGLEWVSVISHGGGSIYYADSVKGRLTISRDNSKNTLYLQMNSLRAEDTAVYYCARDPTKGYAPTFDYWGQGTLVTVSS VL: QSVLTQPPSASGTPGQRVTISCSGSSSNIGNNYVSWYQQLPGTAPKLLIYADSKRPSGVPDRFSGSKSGTSASLAISGLRSEDEADYYCGAWDSMGNGYVFGGGTKLTVLG |  |  |  | binds |  | 
9 | 1-19 (antibody, human IgG4 S228P, lambda, V domains shown) VH: EVQLLESGGGLVQPGGSLRLSCAASGFTFSNYAMSWVRQAPGKGLEWVSVISHGGGSIYYADSVKGRLTISRDNSKNTLYLQMNSLRAEDTAVYYCARDPTKGYAPTFDYWGQGTLVTVSS VL: QSVLTQPPSASGTPGQRVTISCSGSSSNIGNNYVSWYQQLPGTAPKLLIYADSKRPSGVPDRFSGSKSGTSASLAISGLRSEDEADYYCGAWDLSLNGYVFGGGTKLTVLG |  |  |  | binds |  | 
10 | C15 (antibody, human IgG4 S228P, lambda, V domains shown) VH: EVQLLESGGGLVQPGGSLRLSCAASGFTFSSYSMSWVRQAPGKGLEWVSSISPNGGNKYYADSVKGRFTISRDNSKNTLYLQMNSLGAEDTAVYYCAKDPYNIYQPLFDYWGQGTLVTVSS VL: QSVLTQPLSASGTPGQRVTISCSGSSSNIGNNYVNWYQQLPGTAPKLLIYANSNRPSGVPDRFSGSKSGTSASLAISGLRSEEEADYYCGTWDASLSAYVFGGGTKLTVLG |  |  |  |  | binds | binds
